Measurements from paper PMC4462998.
No constants are given. Whether binding was seen depends on the method and setting. In cells and extracts the contact can be indirect.

T1: PBP1A (Escherichia coli) (UniProt P02918)
T1 sequence: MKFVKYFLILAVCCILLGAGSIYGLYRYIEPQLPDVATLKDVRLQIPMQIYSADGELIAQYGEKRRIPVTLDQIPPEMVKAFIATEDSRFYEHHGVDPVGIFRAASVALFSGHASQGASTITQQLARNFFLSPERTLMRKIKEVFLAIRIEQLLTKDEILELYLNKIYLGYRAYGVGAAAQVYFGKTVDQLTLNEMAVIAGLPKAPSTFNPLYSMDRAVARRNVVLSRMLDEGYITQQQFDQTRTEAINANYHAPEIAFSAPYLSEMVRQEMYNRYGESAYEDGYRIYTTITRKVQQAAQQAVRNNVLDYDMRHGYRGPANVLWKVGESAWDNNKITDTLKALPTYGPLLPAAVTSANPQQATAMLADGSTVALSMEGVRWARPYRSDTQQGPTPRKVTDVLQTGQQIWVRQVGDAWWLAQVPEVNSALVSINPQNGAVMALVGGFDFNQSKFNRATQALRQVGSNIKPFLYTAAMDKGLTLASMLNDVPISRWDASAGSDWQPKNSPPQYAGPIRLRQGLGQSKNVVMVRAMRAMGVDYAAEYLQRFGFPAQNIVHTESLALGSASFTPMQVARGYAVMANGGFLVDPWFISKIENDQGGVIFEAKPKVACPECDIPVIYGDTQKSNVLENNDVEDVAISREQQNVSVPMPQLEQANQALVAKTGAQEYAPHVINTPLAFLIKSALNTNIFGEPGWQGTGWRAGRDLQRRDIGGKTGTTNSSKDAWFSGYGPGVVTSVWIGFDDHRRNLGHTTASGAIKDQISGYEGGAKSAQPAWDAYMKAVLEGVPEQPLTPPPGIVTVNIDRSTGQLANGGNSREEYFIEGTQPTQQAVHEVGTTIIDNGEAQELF


How the values were obtained:
PBP1A (Escherichia coli) = target: T1, PBP1A (Escherichia coli); assay: FRET or BRET; in cell FRET assay with the fluorescent labeled proteins (Alexeeva et al., 2010); details in the Supplementary information
PBP1B (Escherichia coli) = PBP1B (Escherichia coli) (UniProt P02919); assay: as above

Row | Binder | binding (PBP1A (Escherichia coli)) | binding (PBP1B (Escherichia coli))
1 | PBP1B (enzyme, UniProt P02919 1-844) MAGNDREPIGRKGKPTRPVKQKVSRRRYEDDDDYDDYDDYEDEEPMPRKGKGKGKGRKPRGKRGWLWLLLKLAIVFAVLIAIYGVYLDQKIRSRIDGKVWQLPAAVYGRMVNLEPDMTISKNEMVKLLEATQYRQVSKMTRPGEFTVQANSIEMIRRPFDFPDSKEGQVRARLTFDGDHLATIVNMENNRQFGFFRLDPRLITMISSPNGEQRLFVPRSGFPDLLVDTLLATEDRHFYEHDGISLYSIGRAVLANLTAGRTVQGASTLTQQLVKNLFLSSERSYWRKANEAYMALIMDARYSKDRILELYMNEVYLGQSGDNEIRGFPLASLYYFGRPVEELSLDQQALLVGMVKGASIYNPWRNPKLALERRNLVLRLLQQQQIIDQELYDMLSARPLGVQPRGGVISPQPAFMQLVRQELQAKLGDKVKDLSGVKIFTTFDSVAQDAAEKAAVEGIPALKKQRKLSDLETAIVVVDRFSGEVRAMVGGSEPQFAGYNRAMQARRSIGSLAKPATYLTALSQPKIYRLNTWIADAPIALRQPNGQVWSPQNDDRRYSESGRVMLVDALTRSMNVPTVNLGMALGLPAVTETWIKLGVPKDQLHPVPAMLLGALNLTPIEVAQAFQTIASGGNRAPLSALRSVIAEDGKVLYQSFPQAERAVPAQAAYLTLWTMQQVVQRGTGRQLGAKYPNLHLAGKTGTTNNNVDTWFAGIDGSTVTITWVGRDNNQPTKLYGASGAMSIYQRYLANQTPTPLNLVPPEDIADMGVDYDGNFVCSGGMRILPVWTSDPQSLCQQSEMQQQPSGNPFDQSSQPQQQPQQQPAQQEQKDSDGVAGWIKDMFGSN | no binding | no binding
2 | PBP1A (enzyme, UniProt P02918 1-850) MKFVKYFLILAVCCILLGAGSIYGLYRYIEPQLPDVATLKDVRLQIPMQIYSADGELIAQYGEKRRIPVTLDQIPPEMVKAFIATEDSRFYEHHGVDPVGIFRAASVALFSGHASQGASTITQQLARNFFLSPERTLMRKIKEVFLAIRIEQLLTKDEILELYLNKIYLGYRAYGVGAAAQVYFGKTVDQLTLNEMAVIAGLPKAPSTFNPLYSMDRAVARRNVVLSRMLDEGYITQQQFDQTRTEAINANYHAPEIAFSAPYLSEMVRQEMYNRYGESAYEDGYRIYTTITRKVQQAAQQAVRNNVLDYDMRHGYRGPANVLWKVGESAWDNNKITDTLKALPTYGPLLPAAVTSANPQQATAMLADGSTVALSMEGVRWARPYRSDTQQGPTPRKVTDVLQTGQQIWVRQVGDAWWLAQVPEVNSALVSINPQNGAVMALVGGFDFNQSKFNRATQALRQVGSNIKPFLYTAAMDKGLTLASMLNDVPISRWDASAGSDWQPKNSPPQYAGPIRLRQGLGQSKNVVMVRAMRAMGVDYAAEYLQRFGFPAQNIVHTESLALGSASFTPMQVARGYAVMANGGFLVDPWFISKIENDQGGVIFEAKPKVACPECDIPVIYGDTQKSNVLENNDVEDVAISREQQNVSVPMPQLEQANQALVAKTGAQEYAPHVINTPLAFLIKSALNTNIFGEPGWQGTGWRAGRDLQRRDIGGKTGTTNSSKDAWFSGYGPGVVTSVWIGFDDHRRNLGHTTASGAIKDQISGYEGGAKSAQPAWDAYMKAVLEGVPEQPLTPPPGIVTVNIDRSTGQLANGGNSREEYFIEGTQPTQQAVHEVGTTIIDNGEAQELF | no binding | 
